Reference: publication doi:10.1101/2023.11.29.569073
These are yes or no findings as the source states them, for the method shown. Binding seen in cells or lysates may run through a third protein. Some binding calls cover weakened binding; strength is not graded here. Tags and fused reporters may be left off the sequences shown.

Target: T1, CPK28-nLuc (Arabidopsis thaliana) (UniProt Q9FKW4)
T1 sequence: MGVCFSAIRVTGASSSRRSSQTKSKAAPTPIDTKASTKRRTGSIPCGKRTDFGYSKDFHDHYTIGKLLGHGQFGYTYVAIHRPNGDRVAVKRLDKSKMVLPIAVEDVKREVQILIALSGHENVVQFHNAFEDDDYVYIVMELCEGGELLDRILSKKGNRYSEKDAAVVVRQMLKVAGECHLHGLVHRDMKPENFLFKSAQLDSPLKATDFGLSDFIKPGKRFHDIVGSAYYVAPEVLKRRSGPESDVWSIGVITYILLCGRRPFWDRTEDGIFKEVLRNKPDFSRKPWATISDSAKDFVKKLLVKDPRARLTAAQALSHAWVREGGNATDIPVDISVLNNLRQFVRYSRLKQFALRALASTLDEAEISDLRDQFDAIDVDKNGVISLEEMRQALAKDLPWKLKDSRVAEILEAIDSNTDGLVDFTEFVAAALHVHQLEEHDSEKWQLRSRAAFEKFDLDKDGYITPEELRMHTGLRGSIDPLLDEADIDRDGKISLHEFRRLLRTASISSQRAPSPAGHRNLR
Experiment: split reporter

- binding: binds
B1: cLuc-CBC1 (enzyme, UniProt Q9SSA4 1-411)
chain: MKEKAESGGGVGYVRADQIDLKSLDEQLQRHLSKAWTMEKRKSLSDGEDNVNNTRHNQNNFGHRQLVFQRPLLGGGYSNNNNSSKNDIIRSTEVEKSRREWEIDPSKLIIKSVIARGTFGTVHRGIYDGQDVAVKLLDWGEEGHRSDAEIASLRAAFTQEVAVWHKLDHPNVTKFIGAAMGTSEMSIQTENGQMGMPSNVCCVVVEYCPGGALKSFLIKTRRRKLAFKVVIQLSLDLARGLSYLHSQKIVHRDVKTENMLLDKSRTLKIADFGVARLEASNPNDMTGETGTLGYMAPEVLNGSPYNRKCDVYSFGICLWEIYCCDMPYPDLSFSEVTSAVVRQNLRPEIPRCCPSSLANVMKRCWDANPEKRPEMEEVVAMLEAIDTSKGGGMIPPDQQQGCFCFRRHRGP
